Laboratory results: publication PMC6283879, “Structural assembly of the megadalton-sized receptor for intestinal vitamin B12 uptake and kidney protein reabsorption” (Nature Communications, 2018)

Protein sequences, listed by entry. Tags and fused reporters are not part of them. Lines headed by an entry give the natural chain unless they say otherwise; changes in a name come on top.
UniProt O70244: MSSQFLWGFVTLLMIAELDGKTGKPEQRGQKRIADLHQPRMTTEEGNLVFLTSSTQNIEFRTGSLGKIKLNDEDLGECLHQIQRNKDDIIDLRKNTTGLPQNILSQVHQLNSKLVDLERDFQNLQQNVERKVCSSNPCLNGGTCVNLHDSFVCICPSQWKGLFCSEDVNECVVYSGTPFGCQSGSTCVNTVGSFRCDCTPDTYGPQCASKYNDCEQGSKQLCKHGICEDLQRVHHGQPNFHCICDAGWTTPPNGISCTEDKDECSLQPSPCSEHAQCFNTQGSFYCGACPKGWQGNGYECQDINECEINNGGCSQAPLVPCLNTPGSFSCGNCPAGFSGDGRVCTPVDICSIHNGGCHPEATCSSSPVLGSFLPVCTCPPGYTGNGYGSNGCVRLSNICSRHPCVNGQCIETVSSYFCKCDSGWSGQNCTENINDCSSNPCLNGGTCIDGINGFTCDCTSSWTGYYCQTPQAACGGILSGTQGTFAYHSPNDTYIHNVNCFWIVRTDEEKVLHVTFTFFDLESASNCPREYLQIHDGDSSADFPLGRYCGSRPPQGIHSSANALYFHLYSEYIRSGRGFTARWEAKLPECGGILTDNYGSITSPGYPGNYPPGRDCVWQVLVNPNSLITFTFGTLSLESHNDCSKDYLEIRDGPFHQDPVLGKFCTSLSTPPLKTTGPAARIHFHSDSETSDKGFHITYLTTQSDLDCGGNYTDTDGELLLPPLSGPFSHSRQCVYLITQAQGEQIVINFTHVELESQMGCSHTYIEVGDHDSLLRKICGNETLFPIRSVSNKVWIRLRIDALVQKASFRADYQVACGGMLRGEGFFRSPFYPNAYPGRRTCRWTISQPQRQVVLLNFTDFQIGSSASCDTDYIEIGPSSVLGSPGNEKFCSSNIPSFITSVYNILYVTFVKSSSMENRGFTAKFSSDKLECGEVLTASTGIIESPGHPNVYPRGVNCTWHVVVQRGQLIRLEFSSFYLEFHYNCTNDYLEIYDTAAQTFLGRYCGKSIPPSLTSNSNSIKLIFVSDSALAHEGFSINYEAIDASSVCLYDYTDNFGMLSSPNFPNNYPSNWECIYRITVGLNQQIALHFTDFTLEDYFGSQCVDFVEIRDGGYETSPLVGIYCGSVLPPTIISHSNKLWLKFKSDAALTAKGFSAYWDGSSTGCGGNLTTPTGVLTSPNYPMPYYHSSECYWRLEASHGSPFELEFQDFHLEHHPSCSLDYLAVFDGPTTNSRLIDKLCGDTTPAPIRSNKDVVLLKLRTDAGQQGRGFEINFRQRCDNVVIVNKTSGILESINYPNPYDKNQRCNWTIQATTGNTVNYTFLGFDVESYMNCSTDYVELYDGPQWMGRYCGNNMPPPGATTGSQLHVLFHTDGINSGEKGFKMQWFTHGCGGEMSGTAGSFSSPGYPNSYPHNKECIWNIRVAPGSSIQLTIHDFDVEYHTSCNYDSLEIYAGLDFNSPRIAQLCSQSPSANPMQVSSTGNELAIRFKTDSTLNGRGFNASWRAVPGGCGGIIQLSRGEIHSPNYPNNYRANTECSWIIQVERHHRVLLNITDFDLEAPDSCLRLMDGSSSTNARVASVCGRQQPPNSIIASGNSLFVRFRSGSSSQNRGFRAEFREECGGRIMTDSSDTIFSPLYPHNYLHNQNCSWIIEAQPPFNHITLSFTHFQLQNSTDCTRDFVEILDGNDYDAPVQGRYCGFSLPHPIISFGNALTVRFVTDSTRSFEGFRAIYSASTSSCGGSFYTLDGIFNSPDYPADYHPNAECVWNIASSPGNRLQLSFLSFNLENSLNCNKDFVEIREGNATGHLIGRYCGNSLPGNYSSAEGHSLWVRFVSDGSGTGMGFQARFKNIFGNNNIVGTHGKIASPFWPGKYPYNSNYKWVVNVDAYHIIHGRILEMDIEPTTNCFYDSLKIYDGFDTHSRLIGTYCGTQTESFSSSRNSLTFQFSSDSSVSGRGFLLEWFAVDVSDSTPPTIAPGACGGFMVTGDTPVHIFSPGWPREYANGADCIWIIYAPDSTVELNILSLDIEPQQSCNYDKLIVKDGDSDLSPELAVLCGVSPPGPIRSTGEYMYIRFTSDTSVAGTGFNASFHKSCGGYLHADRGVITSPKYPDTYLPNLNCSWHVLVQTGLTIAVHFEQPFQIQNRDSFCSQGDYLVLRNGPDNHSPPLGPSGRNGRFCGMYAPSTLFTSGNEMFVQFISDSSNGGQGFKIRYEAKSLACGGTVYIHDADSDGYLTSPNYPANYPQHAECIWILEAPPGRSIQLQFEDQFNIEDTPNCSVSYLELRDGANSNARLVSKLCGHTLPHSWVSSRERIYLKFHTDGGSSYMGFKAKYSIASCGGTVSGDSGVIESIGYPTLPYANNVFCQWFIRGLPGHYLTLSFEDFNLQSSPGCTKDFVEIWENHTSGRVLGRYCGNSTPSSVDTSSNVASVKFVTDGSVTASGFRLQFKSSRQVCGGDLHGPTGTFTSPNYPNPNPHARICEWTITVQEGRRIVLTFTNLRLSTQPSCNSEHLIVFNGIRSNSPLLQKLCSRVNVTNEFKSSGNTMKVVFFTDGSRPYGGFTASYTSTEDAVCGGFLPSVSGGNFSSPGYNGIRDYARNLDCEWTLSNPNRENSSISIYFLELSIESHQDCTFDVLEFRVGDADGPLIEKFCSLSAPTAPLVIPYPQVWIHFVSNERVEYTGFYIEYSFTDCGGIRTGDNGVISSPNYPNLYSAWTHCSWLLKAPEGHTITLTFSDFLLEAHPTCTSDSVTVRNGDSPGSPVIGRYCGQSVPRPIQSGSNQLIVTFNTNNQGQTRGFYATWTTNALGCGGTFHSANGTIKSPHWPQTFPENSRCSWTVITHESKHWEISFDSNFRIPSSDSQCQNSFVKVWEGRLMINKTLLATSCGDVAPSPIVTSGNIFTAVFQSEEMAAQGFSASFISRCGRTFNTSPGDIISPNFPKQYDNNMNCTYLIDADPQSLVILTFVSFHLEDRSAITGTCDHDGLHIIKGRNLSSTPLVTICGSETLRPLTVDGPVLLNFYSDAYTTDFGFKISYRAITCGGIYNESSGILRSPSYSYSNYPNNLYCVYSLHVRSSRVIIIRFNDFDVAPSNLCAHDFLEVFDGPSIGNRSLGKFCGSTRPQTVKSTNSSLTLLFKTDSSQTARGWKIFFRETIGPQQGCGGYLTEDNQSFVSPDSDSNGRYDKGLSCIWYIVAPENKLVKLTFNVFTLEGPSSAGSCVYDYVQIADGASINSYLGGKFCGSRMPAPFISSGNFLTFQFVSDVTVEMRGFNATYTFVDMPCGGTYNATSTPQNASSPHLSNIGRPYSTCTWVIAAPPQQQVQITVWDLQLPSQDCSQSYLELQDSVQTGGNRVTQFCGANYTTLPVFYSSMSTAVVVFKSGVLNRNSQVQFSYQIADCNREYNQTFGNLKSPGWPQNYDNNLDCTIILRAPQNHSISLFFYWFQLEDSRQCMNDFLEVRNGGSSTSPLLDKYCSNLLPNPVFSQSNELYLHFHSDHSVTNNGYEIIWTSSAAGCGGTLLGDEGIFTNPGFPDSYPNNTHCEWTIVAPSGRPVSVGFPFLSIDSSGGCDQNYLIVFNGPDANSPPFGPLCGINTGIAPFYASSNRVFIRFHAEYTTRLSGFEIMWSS

Tests used:
Experiment in all cases: co-IP; CHO K1 cells co-transfected with cubilin(1–1389) and V5-tagged AMN; 1% Triton X-100 lysate in PBS pH 7.4; anti-V5 agarose beads, 2 hours at room temperature; blot with anti-rat cubilin and anti-V5
[1] = biological target: T1, V5-tagged AMN(1–454) S37A/T41I double mutant (human) (UniProt Q9BXJ7)
T1 sequence: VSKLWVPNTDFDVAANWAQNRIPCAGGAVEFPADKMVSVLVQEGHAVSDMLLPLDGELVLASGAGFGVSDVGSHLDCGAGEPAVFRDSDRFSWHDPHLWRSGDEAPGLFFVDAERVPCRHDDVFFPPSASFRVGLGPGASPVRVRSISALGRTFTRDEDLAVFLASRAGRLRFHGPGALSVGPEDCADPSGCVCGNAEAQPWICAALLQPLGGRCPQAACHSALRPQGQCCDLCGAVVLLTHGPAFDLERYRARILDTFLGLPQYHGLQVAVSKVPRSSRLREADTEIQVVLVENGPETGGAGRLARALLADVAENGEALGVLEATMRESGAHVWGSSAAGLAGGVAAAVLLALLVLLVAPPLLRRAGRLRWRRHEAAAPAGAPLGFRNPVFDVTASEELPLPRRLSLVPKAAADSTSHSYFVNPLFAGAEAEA

[2] = biological target: T2, V5-tagged AMN(1–454) T41I (human) (UniProt Q9BXJ7)
T2 sequence: T1 sequence with A18S

[3] = biological target: T3, V5-tagged AMN(1–454) S37A (human) (UniProt Q9BXJ7)
T3 sequence: T1 sequence with I22T

[4] = biological target: T4, V5-tagged AMN(1–454), wild type (human) (UniProt Q9BXJ7)
T4 sequence: T1 sequence with A18S, I22T

Measured: binding

cubilin (amino acids 1–1389) (from UniProt O70244) (domain or fragment)
binds: [1] | [2] | [3] | [4]

Substitutions are numbered along the chain they refer to. Results are given in words; binding and its absence hold for the method and conditions named. In cells and extracts the contact can be indirect. A result given as binding can be weak or reduced; the word gives no strength. Tags and fused reporters may be left off the sequences shown.
